Results are given in words; binding and its absence hold for the method and conditions named.
Key:
[1] = biological target: T1, mouse SPO11–TOP6BL complex (1:1) (mouse) (UniProt Q9WTK8+J3QMY9); assay: mass photometry; Refeyn OneMP; 28 nM protein; 25 mM HEPES-NaOH pH 7.5, 150 mM NaCl, 2 mM DTT; without ATP; both purified
[2] = biological target: T1, mouse SPO11–TOP6BL complex (1:1) (mouse); assay: mass photometry; Refeyn OneMP; 28 nM protein; 25 mM HEPES-NaOH pH 7.5, 150 mM NaCl, 2 mM DTT; with 5 mM ATP; both purified
[3] = biological target: T1, mouse SPO11–TOP6BL complex (1:1) (mouse); assay: SEC; Superdex 200 Increase 10/300 GL after anti-Flag M2 affinity purification of the co-expressed proteins; lysis buffer 25 mM HEPES-NaOH pH 7.5, 500 mM NaCl; both purified

B1: mouse SPO11–TOP6BL complex (1:1) (complex, UniProt Q9WTK8-1 1-396; J3QMY9-1 1-579)
chain 1: MAFAPMGPEASFFDALDRHRASLLAMVKRGAGETPAGATRVASSSEVLTAIENIIQDIIKSLARNEVPAFTIDNRSSWENIMFDDSVGLRMIPQCTTRKIRSDSPKSVKKFALILKVLSMIYKLIQSDTYATKRDIYYTDSQLFGNQAAVDSAIDDISCMLKVPRRSLHVLSTSKGLIAGNLRYMEEDGTRVQCTCSATATAVPTNIQGMQHLITDAKFLLIVEKDATFQRLLDDNFCSRMSPCIMVTGKGVPDLNTRLLVKKLWDTFHIPVFTLVDADPYGIEIMCIYKYGSMSMSFEAHNLTIPTIRWLGLLPSDIQRLNIPKDSLIPLTKHDQMKLDSILKRPYITYQPLWKKELEMMADSKMKAEIQALTLLSSDYLSRVYLPNKLRFGGWI
chain 2: MERTALAVCEILRYLIIHWKCEAGTAKGTLLDGQLVISIEALRSKHLPDSLHCIITIASTRSVYGGLNFKKFLQEIQPALPRLSAKLALASEEGGRSQDASGIAPCQVTFEVDENSQSLMTDCLVIKHFLRKIIIVHHKLKFSFSVAVNGTLSAETFGAENEPTLRLDNGVTLVVGFQRYVSKPKLNWSEAHCSRIHPVLGHPAPLFIPDAKADTGLLGELTLTPAAALCPSPKGFSSQLCRISSVSIFLYGPLGLPLLSSDQDQPSTAVFRDTSYFIDWKKYNLFMVPNLDLNLDTQSVLPDVNYKAESPEGNQSQNMNAQGPALLLFLFVDFQSDVPVQQAKIWGLHTLLTAHLSAILSESRSTVQQSIQSAVDQVWQLYHHDAKTQQRLQASLSVAVNSIMSVLTGSTRSSFRKTCLQALEAADTQEFGVKLHRIFYDITQHQFLKHCSCDTEQHLTPEKNISAQNTKDQHKNIAQEFPEESIGQAENKRPKRGSPNHGREESRVLGSARDRSPPKSATRDRELTEVSLTARGSQTQAAHGRAQAAEAASPAGGLEDLWLQEVSNLSEWLNPGHRS
**Q.** How did the binding [1] turn out when B1 was run?
**A.** The binding was “no binding (tested: 28 nM)”.

**Q.** And the binding [2]?
**A.** Its binding is “no binding (tested: 28 nM)”.

**Q.** And the binding [3]?
**A.** The binding was “no binding”.
